This note sets out measurements from ChEMBL document CHEMBL4513141, “CO-ADD screening of NIH (USA) - Clinical Collection” (2021).

Some of the results follow. Entries with a potency or affinity are not part of this list.

This test has as its system Acinetobacter baumannii. The conditions noted are these: Concentration 20 uM; ASSAY_TEST Inhibition of Bacterial Growth; detection method Absorption (OD600); MEDIA CAMHB; plate type 384well; NBS; CORNING #3640; time 18 hr.
As a reminder, the Inhibition is the relative decrease from the control value, in per cent. For the compound `CN(C)CCOC(c1ccccc1)c1ccccc1.Cl` [DIPHENHYDRAMINE HYDROCHLORIDE], the Inhibition was 12.18%.

Regarding `CCOC(=O)C1(CCCCCCOc2ccc(Cl)cc2)CO1` (stereo not drawn) [rac-ETOMOXIR], the Inhibition was 12.11%.

For `O=C(C1CCCCC1)N1CC(=O)N2CCc3ccccc3C2C1` (stereo not given) [PRAZIQUANTEL], the Inhibition was determined as 17.48%. With `CC(C)(C#N)c1cc(Cn2cncn2)cc(C(C)(C)C#N)c1` [ANASTROZOLE] the figure was -0.7%; with `Nc1ccn([C@H]2CC[C@@H](CO)O2)c(=O)n1` [ZALCITABINE], 3.66%; with `Oc1ccc(/C=C/c2cc(O)cc(O)c2)cc1` [RESVERATROL], 17.94%.

Turning to `COc1ccc(/C=C/C(=O)Nc2ccccc2C(=O)O)cc1OC`, the Inhibition is given as 26.4%. With `Cl.O=C(NCC1CCCCN1)c1cc(OCC(F)(F)F)ccc1OCC(F)(F)F` (stereo not given) the figure was 22.09%; with `COc1ccc(C(=O)NCc2ccc(OCCN(C)C)cc2)cc1OC.Cl`, 1.28%. With `CN1CCN(C2=Nc3cc(F)ccc3Cc3ccccc32)CC1` [FLUPERLAPINE] the figure was 26.43%. With `CC(C[N+](C)(C)C)OC(N)=O.[Cl-]` (stereo not given) [BETHANECHOL CHLORIDE] the figure was 5.89%; with `COc1cc(C[C@@H](CO)[C@H](CO)Cc2ccc(O)c(OC)c2)ccc1O` [(+)-SECOISOLARICIRESINOL], 17.28%; with `Cc1cccc(C)c1NC(=O)C(C)N` (stereo not given) [TOCAINIDE], 30.81%. As to `Cl.c1ccc(CC2=NCCN2)cc1` [TOLAZOLINE HYDROCHLORIDE], the Inhibition amounted to 9.03%. With `OCc1cccnc1` [NICOTINYL ALCOHOL] the figure was 12.41%. With `Cl.Clc1ccc2nsnc2c1NC1=NCCN1` [TIZANIDINE HYDROCHLORIDE] the figure was 4.87%. With `Cc1c(C(=O)NN2CCCCC2)nn(-c2ccc(Cl)cc2Cl)c1-c1ccc(I)cc1` the figure was 10.46%; with `O=C(O)CCNC(=O)c1ccc(N=Nc2ccc(O)c(C(=O)O)c2)cc1`, 12.14%. Turning to `Cl.Cn1c(NCCN(CCO)CCCc2ccc([N+](=O)[O-])cc2)cc(=O)n(C)c1=O`, the Inhibition is 7.77%. With `C[C@]12C=CC(=O)C=C1CC[C@@H]1[C@@H]2[C@@H](O)C[C@@]2(C)[C@H]1CC[C@]2(O)C(=O)CO` [PREDNISOLONE] the figure was 15.17%. As to `CCC(CO)NCCNC(CC)CO` (stereo not given), the Inhibition is on record as 29.88%. With `CN1CCN(C2=Nc3ccccc3Oc3ccc(Cl)cc32)CC1.O=C(O)CCC(=O)O` [LOXAPINE SUCCINATE] the figure was 23.44%; with `CC1=C(/C=C/C(C)=C/C=C/C(C)=C/C(=O)O)C(C)(C)CCC1` [TRETINOIN], 15.06%; with `CCOC(=O)[C@@H](CCc1ccccc1)N[C@@H](C)C(=O)N1CCC[C@H]1C(=O)O.O=C(O)/C=C\C(=O)O`, 21.08%. Regarding `CC(=O)OCC(=O)C12OC3(CCCC3)OC1CC1C3CCC4=CC(=O)C=CC4(C)C3(F)C(O)CC12C` (stereo not given), the Inhibition is given as 17.04%. With `CC(CCc1ccccc1)NCC(O)c1ccc(O)c(C(N)=O)c1.Cl` (stereo not given) [LABETALOL HYDROCHLORIDE] the figure was 25.37%. Regarding `COc1cc2nc(N(C)CCCNC(=O)C3CCCO3)nc(N)c2cc1OC` (stereo not given) [ALFUZOSIN], the Inhibition is 19.22%.

As for `N[C@@H]1CONC1=O` [CYCLOSERINE], the Inhibition amounted to 25.21%. With `O=C(O)COCCN1CCN(C(c2ccccc2)c2ccc(Cl)cc2)CC1` (stereo not given) [CETIRIZINE] the figure was 7.09%.

For `CC(=O)OCC(=O)[C@@]1(O)CC[C@H]2[C@@H]3CCC4=CC(=O)CC[C@]4(C)[C@H]3C(=O)C[C@@]21C` [CORTISONE ACETATE], the Inhibition turned out to be 30.1%. With `CC1CNc2c(cccc2S(=O)(=O)N[C@@H](CCCNC(=N)N)C(=O)N2CC[C@@H](C)C[C@@H]2C(=O)O)C1` (stereo not given in full) [ARGATROBAN] the figure was 26.1%; with `O=C1CN(/N=C/c2ccc(-c3ccc([N+](=O)[O-])cc3)o2)C(=O)[N-]1.[Na+]` [DANTROLENE SODIUM], 9.64%; with `O=c1cnn([C@@H]2O[C@H](CO)[C@@H](O)[C@H]2O)c(=O)[nH]1` [6-AZAURIDINE], 9.01%. With `N[C@@H](Cc1cc(I)c(Oc2cc(I)c(O)c(I)c2)c(I)c1)C(=O)O` [LEVOTHYROXINE] the figure was 5.92%; with `CCCN(CCC)S(=O)(=O)c1ccc(C(=O)O)cc1` [PROBENECID], 30.42%; with `O=C(O)c1cc2ccccc2c(Cc2c(O)c(C(=O)O)cc3ccccc23)c1O.OCCOCCN1CCN(C(c2ccccc2)c2ccc(Cl)cc2)CC1` [HYDROXYZINE PAMOATE], 25.25%. With `CCCc1cc(=O)[nH]c(=S)[nH]1` [PROPYLTHIOURACIL] the figure was 26.31%. Consider `Cc1onc(-c2ccccc2)c1-c1ccc(S(N)(=O)=O)cc1` [VALDECOXIB], for which the Inhibition worked out at 22.84%. With `Cc1sc(N)c(C(=O)c2cccc(C(F)(F)F)c2)c1C` the figure was 4.19%; with `CC(C)(C)NC(=O)[C@@H]1C[C@@H]2CCCC[C@@H]2CN1C[C@@H](O)[C@H](Cc1ccccc1)NC(=O)[C@H](CC(N)=O)NC(=O)c1ccc2ccccc2n1.CS(=O)(=O)O` [SAQUINAVIR MESYLATE], 3.89%; with `Nc1nc(Cl)nc2c1ncn2[C@H]1C[C@H](O)[C@@H](CO)O1` [CLADRIBINE], 27.7%. As for `CC(C)NCC(O)COc1ccc(CCOCC2CC2)cc1.Cl` (stereo not given) [BETAXOLOL HYDROCHLORIDE], the Inhibition stood at 26.37%. With `COc1ccc2c(c1)c(CC(=O)O)c(C)n2C(=O)c1ccc(Cl)cc1.O` the figure was 9.56%; with `CC12CC3CC(C)(C1)CC(N)(C3)C2.Cl` [MEMANTINE HYDROCHLORIDE], 21.12%. With `COc1cc2c(cc1OC)C(=O)C(CC1CCN(Cc3ccccc3)CC1)C2.Cl` (stereo not given) [DONEPEZIL HYDROCHLORIDE] the figure was 15.08%; with `CCC(=O)O[C@]1(C(=O)CCl)[C@@H](C)C[C@H]2[C@@H]3CCC4=CC(=O)C=C[C@]4(C)[C@@]3(F)[C@@H](O)C[C@@]21C` [CLOBETASOL PROPIONATE], 5.15%; with `CC(C)c1ccc2oc3nc(N)c(C(=O)O)cc3c(=O)c2c1` [AMLEXANOX], 18.03%. With `COC(=O)Nc1nc2cc(C(=O)c3ccccc3)ccc2[nH]1` [MEBENDAZOLE] the figure was 19.38%.

For the compound `CN(C)CCCSc1ccccc1NC(=O)/C=C/c1ccccc1.Cl.O`, the Inhibition amounted to 20.68%. With `CC(=O)OCC(=O)[C@@]1(O)CC[C@H]2[C@@H]3CCC4=CC(=O)CC[C@]4(C)[C@H]3[C@@H](O)C[C@@]21C` [HYDROCORTISONE ACETATE] the figure was 22.72%. For the compound `CC#C[C@]1(O)CC[C@H]2[C@@H]3CCC4=CC(=O)CCC4=C3[C@@H](c3ccc(N(C)C)cc3)C[C@@]21C` [MIFEPRISTONE], the Inhibition is listed as 17.82%.

Turning to `Nc1ccc2cn[nH]c2c1`, the Inhibition turned out to be 8.02%. For the compound `Cl.O[C@@H](c1cc(C(F)(F)F)nc2c(C(F)(F)F)cccc12)[C@H]1CCCCN1`, the Inhibition was 32.5%. Turning to `CC[C@]1(O)C[C@@H]2CN(CCc3c([nH]c4ccccc34)[C@@](C(=O)OC)(c3cc4c(cc3OC)N(C)[C@H]3[C@@](O)(C(N)=O)[C@H](O)[C@]5(CC)C=CCN6CC[C@]43[C@@H]65)C2)C1.O=S(=O)(O)O` [VINDESINE SULFATE], the Inhibition was 7.96%. Regarding `COc1ccccc1N1CCN(CCCNc2cc(=O)n(C)c(=O)n2C)CC1.Cl` [URAPIDIL HYDROCHLORIDE], the Inhibition was 26.15%. Take `Cl.O=C(c1ccc(OCCN2CCCCC2)cc1)c1c(-c2ccc(O)cc2)sc2cc(O)ccc12` [RALOXIFENE HYDROCHLORIDE]: the Inhibition worked out at 22.38%. As for `C[C@]12C=CC(=O)C=C1CC[C@@H]1[C@@H]2[C@@H](O)C[C@@]2(C)[C@H]1CC[C@]2(O)C(=O)COC(=O)CCC(=O)[O-].[Na+]` [PREDNISOLONE SODIUM SUCCINATE], the Inhibition was 7.06%. With `CN(C)CCOC(C)(c1ccccc1)c1ccccn1.O=C(O)CCC(=O)O` (stereo not given) [DOXYLAMINE SUCCINATE] the figure was 21.19%; with `CS(=O)(=O)c1ccc(-c2cc(Br)sc2-c2ccc(F)cc2)cc1` [DUP-697], 10.38%. With `CCC(=O)O[C@]1(C(=O)SCF)[C@H](C)C[C@H]2[C@@H]3C[C@H](F)C4=CC(=O)C=C[C@]4(C)[C@@]3(F)[C@@H](O)C[C@@]21C` [FLUTICASONE PROPIONATE] the figure was 8.93%; with `CC(C(=O)O)c1cccc(C(=O)c2ccccc2)c1` (stereo not given) [KETOPROFEN], 24.16%; with `COc1cc(/C=C/c2ccc(O)cc2)cc(OC)c1` [PTEROSTILBENE], 28.58%. With `CN(CCO)CC(O)Cn1cnc2c1c(=O)n(C)c(=O)n2C.O=C(O)c1cccnc1` (stereo not given) [XANTHINOL NIACINATE] the figure was 27.77%. For the compound `Nc1nc2c(ncn2COCCO)c(=O)[nH]1` [ACYCLOVIR], the Inhibition was determined as 6.13%.

As to `CCOc1cc(CC(=O)N[C@@H](CC(C)C)c2ccccc2N2CCCCC2)ccc1C(=O)O` [REPAGLINIDE], the Inhibition is on record as 15.61%.

`Cc1occc(=O)c1O` [MALTOL]: the Inhibition was found to be 26.74%. Consider `C[C@]12CCC(=O)C=C1CC[C@@H]1[C@@H]2C(=O)C[C@@]2(C)[C@H]1CC[C@]2(O)C(=O)CO` [CORTISONE], for which the Inhibition is recorded as 18.48%. With `CC(C(O)c1ccc(O)cc1)N1CCC(Cc2ccccc2)CC1.O.O=C(O)C(O)C(O)C(=O)O` (stereo not given), the Inhibition amounted to 29.41%. With `O=C(NCCN1CCOCC1)c1ccc(Cl)cc1` [MOCLOBEMIDE] the figure was 4.07%; with `CC(=O)CCCCn1c(=O)c2c(ncn2C)n(C)c1=O` [PENTOXIFYLLINE], 28.38%.
